From the supplement of paper PMC4604168 (melanoma cell lines)
The other results are listed elsewhere or left out. Repeats are few or missing, and single values can be far off.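 Cells were imaged in 1,536-well plates, and nuclei stained with an antibody against cleaved PARP were counted against all DNA-stained nuclei to give the apoptosis fraction. Screening doses were chosen to leave most cells alive, and resting and induced cleaved-PARP levels differ strongly between cell lines.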

What was measured:
Assay in all cases: cleaved PARP positive nuclei fraction relative to DMSO control; melanoma cells; higher = more apoptosis
Conditions in all cases: library dose: low library concentration; 72 h
501Mel = tested on: 501Mel
A101D = tested on: A101D
A2058 = tested on: A2058
C32 = tested on: C32
CBRC008 = tested on: CBRC008 (line from a melanoma biopsy)
CBRC014 = tested on: CBRC014 (line from a melanoma biopsy)
CBRC016 = tested on: CBRC016 (line from a melanoma biopsy)
CBRC017 = tested on: CBRC017 (line from a melanoma biopsy)
COLO792 = tested on: COLO792
COLO800 = tested on: COLO800
COLO829 = tested on: COLO829
G361 = tested on: G361
IPC-298 = tested on: IPC-298
IST-MEL1 = tested on: IST-MEL1
LB2518-MEL = tested on: LB2518-MEL
LOXIMVI = tested on: LOXIMVI

Structure (SMILES) | cleaved PARP positive nuclei fraction (501Mel) [%] | cleaved PARP positive nuclei fraction (A101D) [%] | cleaved PARP positive nuclei fraction (A2058) [%] | cleaved PARP positive nuclei fraction (C32) [%] | cleaved PARP positive nuclei fraction (CBRC008) [%] | cleaved PARP positive nuclei fraction (CBRC014) [%] | cleaved PARP positive nuclei fraction (CBRC016) [%] | cleaved PARP positive nuclei fraction (CBRC017) [%] | cleaved PARP positive nuclei fraction (COLO792) [%] | cleaved PARP positive nuclei fraction (COLO800) [%] | cleaved PARP positive nuclei fraction (COLO829) [%] | cleaved PARP positive nuclei fraction (G361) [%] | cleaved PARP positive nuclei fraction (IPC-298) [%] | cleaved PARP positive nuclei fraction (IST-MEL1) [%] | cleaved PARP positive nuclei fraction (LB2518-MEL) [%] | cleaved PARP positive nuclei fraction (LOXIMVI) [%]
Nc1nc(F)nc2c1ncn2[C@@H]1O[C@H](CO)[C@@H](O)[C@@H]1O [fludarabine] + CC(C)CCN1c2nc(Nc3cc(F)c(O)c(F)c3)ncc2N(C)C(=O)C1C [BID1870] (first compound 0.2 µM, partner dose 0.2 µM) | 1110 | 22.3 | 40.4 | 198 | 102 | 115 | 561 | 75.1 | 20.7 | 61.5 | 75.2 | 167 | 102 | 168 | 70.9 | 78.6
O=C(O)c1ccc2c(c1)nc(Nc1cccc(Cl)c1)c1ccncc12 + O=C(O)C(=O)Nc1sc2c(c1C(=O)O)CCNC2 [TCS401] (first compound 0.4 µM, partner dose 1.66667 µM) | 57.7 | 18.9 | 84.5 | 132 | 99.5 | 103 | 134 | 132 | 222 | 69.3 | 149 | 134 | 98.7 | 78.2 | 28.7 | 295
CNC(=O)c1cc(Oc2ccc(NC(=O)Nc3ccc(Cl)c(C(F)(F)F)c3)cc2)ccn1 [sorafenib] + COc1cc(N2CCC(N3CCN(C)CC3)CC2)ccc1Nc1ncc(Cl)c(Nc2ccccc2S(=O)(=O)C(C)C)n1 [NVP-TAE684] (first compound 0.4 µM, partner dose 0.08 µM) | 151 | 16.5 | 70.2 | 38.8 | 45.8 | 76.2 | 92 | 120 | 71.9 | 110 | 99.5 | 112 | 66.9 | 35.7 | 66.4 | 52.5
CS(=O)(=O)CCNCc1ccc(-c2ccc3ncnc(Nc4ccc(OCc5cccc(F)c5)c(Cl)c4)c3c2)o1 [lapatinib] + O=C1NC(=O)/C(=C/c2ccc(-c3ccc(F)cc3O)o2)S1 [AS252424] (first compound 0.8 µM, partner dose 1 µM) | 66.2 | 27.2 | 72.1 | 81.1 | 385 | 174 | 77.1 | 109 | 247 | 42.5 | 52.7 | 185 | 65.9 | 284 | 31.5 | 263
C=C(c1ccc(C(=O)O)cc1)c1cc2c(cc1C)C(C)(C)CCC2(C)C [Bexarotene] + N#Cc1c(O)c2c(-c3ccc(-c4ccccc4O)cc3)csc2[nH]c1=O [A769662] (first compound 2 µM, partner dose 2 µM) | 83.6 | 43.6 | 41.4 | 40.5 | 131 | 132 | 339 | 171 | 140 | 41.3 | 195 | 131 | 368 | 51.3 | 63.9 | 60.8
C=C(c1ccc(C(=O)O)cc1)c1cc2c(cc1C)C(C)(C)CCC2(C)C [Bexarotene] + O=C(Nc1ccccc1)c1cc([N+](=O)[O-])ccc1Cl [GW9662] (first compound 2 µM, partner dose 2 µM) | 118 | 29.1 | 185 | 91.7 | 145 | 223 | 268 | 132 | 135 | 83.1 | 111 | 203 | 174 | 59.2 | 105 | 82.6
Nc1nc(F)nc2c1ncn2[C@@H]1O[C@H](CO)[C@@H](O)[C@@H]1O [fludarabine] + CCc1ccc(CCOc2ccc(CC3SC(=O)NC3=O)cc2)nc1 [pioglitazone] (first compound 0.2 µM, partner dose 2 µM) | 882 | 42.8 | 75.7 | 105 | 39.2 | 82.2 | 65.7 | 85.3 | 118 | 117 | 61.7 | 82 | 96.8 | 43.5 | 77.4 | 89.6
CS(=O)(=O)CCNCc1ccc(-c2ccc3ncnc(Nc4ccc(OCc5cccc(F)c5)c(Cl)c4)c3c2)o1 [lapatinib] + CCc1ccc(CCOc2ccc(CC3SC(=O)NC3=O)cc2)nc1 [pioglitazone] (first compound 0.8 µM, partner dose 2 µM) | 115 | 25.5 | 227 | 252 | 112 | 114 | 35.9 | 113 | 100 | 100 | 112 | 105 | 94.1 | 181 | 80.4 | 37.6
CO[C@H]1C[C@@H]2CC[C@@H](C)[C@@](O)(O2)C(=O)C(=O)N2CCCC[C@H]2C(=O)O[C@H]([C@H](C)C[C@@H]2CC[C@@H](OCCO)[C@H](OC)C2)CC(=O)[C@H](C)/C=C(\C)[C@@H](O)[C@@H](OC)C(=O)[C@H](C)C[C@H](C)/C=C/C=C/C=C/1C [everolimus] + COc1cc2ncnc(Nc3ccc(Oc4ccccc4)cc3)c2cc1OC [SrcI1] (first compound 0.02 µM, partner dose 2 µM) | 80.4 | 63.9 | 132 | 172 | 169 | 101 | 14.7 | 90.1 | 186 | 150 | 75.8 | 64.5 | 123 | 117 | 108 | 79.2
Nc1nc(F)nc2c1ncn2[C@@H]1O[C@H](CO)[C@@H](O)[C@@H]1O [fludarabine] + COc1ccc2c(c1)CCC1C2CCC2(C)C(NCCCCCCN3C(=O)C=CC3=O)CCC12 [U73122] (first compound 0.2 µM, partner dose 0.4 µM) | 598 | 20.1 | 105 | 147 | 46.6 | 93.1 | 32.9 | 103 | 118 | 111 | 140 | 87.3 | 166 | 103 | 38.3 | 151
CN1CCN(c2ccc3nc(-c4c(N)c5c(F)cccc5[nH]c4=O)[nH]c3c2)CC1 [Dovitinib] + CCN(CC)CCCCNc1ncc2cc(-c3cc(OC)cc(OC)c3)c(NC(=O)NC(C)(C)C)nc2n1 [PD173074] (first compound 0.1 µM, partner dose 0.1 µM) | 90 | 9.47 | 55.1 | 164 | 118 | 96.3 | 115 | 81 | 61.3 | 108 | 94.3 | 55.4 | 65 | 95.6 | 47.2 | 124
Nc1ccn([C@@H]2O[C@H](CO)[C@@H](O)C2(F)F)c(=O)n1 [gemcitabine] + COc1ccc(-c2ccc3c(N4CCOCC4)nc(N4C[C@@H](C)O[C@@H](C)C4)nc3n2)cc1CO [KU0063794] (first compound 0.0004 µM, partner dose 0.02 µM) | 74.7 | 13.4 | 71.6 | 76.4 | 639 | 241 | 244 | 121 | 120 | 137 | 143 | 265 | 291 | 99.8 | 152 | 120
CC(C)C[C@H](NC(=O)[C@H](Cc1ccccc1)NC(=O)c1cnccn1)B(O)O [Bortezomib] + Cn1cc(/C=C2\C(=O)Nc3cccnc32)c2ccccc21 [GW441756] (first compound 0.001 µM, partner dose 0.4 µM) | 193 | 105 | 128 | 122 | 376 | 370 | 1170 | 94.7 | 49.8 | 18.2 | 148 | 3770 | 152 | 140 | 948 | 116
O=C(O)c1ccc2c(c1)nc(Nc1cccc(Cl)c1)c1ccncc12 + COc1cc(N2CCC(N3CCN(C)CC3)CC2)ccc1Nc1ncc(Cl)c(Nc2ccccc2S(=O)(=O)C(C)C)n1 [NVP-TAE684] (first compound 0.4 µM, partner dose 0.08 µM) | 63.4 | 13 | 244 | 109 | 133 | 113 | 3400 | 159 | 82.3 | 119 | 186 | 105 | 47.9 | 54.9 | 52.4 | 61
Nc1nc(F)nc2c1ncn2[C@@H]1O[C@H](CO)[C@@H](O)[C@@H]1O [fludarabine] + COc1ccc(-c2ccc3c(N4CCOCC4)nc(N4C[C@@H](C)O[C@@H](C)C4)nc3n2)cc1CO [KU0063794] (first compound 0.2 µM, partner dose 0.02 µM) | 1900 | 667 | 308 | 309 | 28.8 | 101 | 76.8 | 182 | 93.2 | 38.2 | 126 | 71.2 | 86.8 | 124 | 68.8 | 75.1
CN1CCN(c2ccc3nc(-c4c(N)c5c(F)cccc5[nH]c4=O)[nH]c3c2)CC1 [Dovitinib] + Oc1cc(-c2nc(-c3ccccc3)[nH]c2-c2ccncc2)ccc1Cl [L779450] (first compound 0.1 µM, partner dose 0.2 µM) | 175 | 38.1 | 33.6 | 169 | 34.3 | 107 | 44 | 88.3 | 84.6 | 171 | 91.8 | 89.4 | 105 | 112 | 100 | 173
CS(=O)(=O)CCNCc1ccc(-c2ccc3ncnc(Nc4ccc(OCc5cccc(F)c5)c(Cl)c4)c3c2)o1 [lapatinib] + CCCCCCCCCCCC1=C(O)C(=O)C=C(O)C1=O [Embelin] (first compound 0.8 µM, partner dose 1.2 µM) | 86.5 | 11 | 117 | 71.9 | 126 | 90.7 | 21.2 | 75.6 | 92.4 | 141 | 49.1 | 156 | 178 | 103 | 32 | 105
Nc1ncn([C@H]2C[C@H](O)[C@@H](CO)O2)c(=O)n1 [decitabine] + CCN(CC)CCCCNc1ncc2cc(-c3cc(OC)cc(OC)c3)c(NC(=O)NC(C)(C)C)nc2n1 [PD173074] (first compound 0.1 µM, partner dose 0.1 µM) | 67.3 | 9.97 | 73.8 | 44.2 | 290 | 117 | 73.1 | 102 | 137 | 41.8 | 336 | 150 | 166 | 168 | 73.8 | 151

An excerpt of these results, with tabs.
Structure (SMILES)	cleaved PARP positive nuclei fraction (501Mel) [%]	cleaved PARP positive nuclei fraction (A101D) [%]	cleaved PARP positive nuclei fraction (A2058) [%]	cleaved PARP positive nuclei fraction (C32) [%]	cleaved PARP positive nuclei fraction (CBRC008) [%]	cleaved PARP positive nuclei fraction (CBRC014) [%]	cleaved PARP positive nuclei fraction (CBRC016) [%]	cleaved PARP positive nuclei fraction (CBRC017) [%]	cleaved PARP positive nuclei fraction (COLO792) [%]	cleaved PARP positive nuclei fraction (COLO800) [%]	cleaved PARP positive nuclei fraction (COLO829) [%]	cleaved PARP positive nuclei fraction (G361) [%]	cleaved PARP positive nuclei fraction (IPC-298) [%]	cleaved PARP positive nuclei fraction (IST-MEL1) [%]	cleaved PARP positive nuclei fraction (LB2518-MEL) [%]	cleaved PARP positive nuclei fraction (LOXIMVI) [%]
Nc1nc(F)nc2c1ncn2[C@@H]1O[C@H](CO)[C@@H](O)[C@@H]1O [fludarabine] + CCc1ccc(CCOc2ccc(CC3SC(=O)NC3=O)cc2)nc1 [pioglitazone] (first compound 0.2 µM, partner dose 2 µM)	882	42.8	75.7	105	39.2	82.2	65.7	85.3	118	117	61.7	82	96.8	43.5	77.4	89.6
CN1CCN(c2ccc3nc(-c4c(N)c5c(F)cccc5[nH]c4=O)[nH]c3c2)CC1 [Dovitinib] + CCN(CC)CCCCNc1ncc2cc(-c3cc(OC)cc(OC)c3)c(NC(=O)NC(C)(C)C)nc2n1 [PD173074] (first compound 0.1 µM, partner dose 0.1 µM)	90	9.47	55.1	164	118	96.3	115	81	61.3	108	94.3	55.4	65	95.6	47.2	124
Nc1ncn([C@H]2C[C@H](O)[C@@H](CO)O2)c(=O)n1 [decitabine] + CCN(CC)CCCCNc1ncc2cc(-c3cc(OC)cc(OC)c3)c(NC(=O)NC(C)(C)C)nc2n1 [PD173074] (first compound 0.1 µM, partner dose 0.1 µM)	67.3	9.97	73.8	44.2	290	117	73.1	102	137	41.8	336	150	166	168	73.8	151
